Test results from publication PMC8070743.
These are yes or no findings as the source states them, for the method shown.

The chains behind the UniProt entries cited, without tags or fusion partners. Residues count along the entry.
UniProt P02769, residues 25-607: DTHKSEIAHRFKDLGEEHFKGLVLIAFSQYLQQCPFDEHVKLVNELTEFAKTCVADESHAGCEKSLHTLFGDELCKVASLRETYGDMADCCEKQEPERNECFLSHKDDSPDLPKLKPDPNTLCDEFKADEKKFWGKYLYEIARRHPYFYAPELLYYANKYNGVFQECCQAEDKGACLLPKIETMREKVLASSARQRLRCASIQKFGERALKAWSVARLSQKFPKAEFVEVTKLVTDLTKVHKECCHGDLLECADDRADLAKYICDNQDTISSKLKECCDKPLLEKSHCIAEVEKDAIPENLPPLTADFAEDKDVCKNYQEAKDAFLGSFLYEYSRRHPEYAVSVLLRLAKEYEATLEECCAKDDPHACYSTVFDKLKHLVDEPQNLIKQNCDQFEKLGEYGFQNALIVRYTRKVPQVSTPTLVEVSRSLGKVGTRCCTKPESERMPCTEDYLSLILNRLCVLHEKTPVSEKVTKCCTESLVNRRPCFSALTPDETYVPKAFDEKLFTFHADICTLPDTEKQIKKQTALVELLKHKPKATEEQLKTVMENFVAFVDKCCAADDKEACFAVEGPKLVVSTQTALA
UniProt P56704, residues 19-352: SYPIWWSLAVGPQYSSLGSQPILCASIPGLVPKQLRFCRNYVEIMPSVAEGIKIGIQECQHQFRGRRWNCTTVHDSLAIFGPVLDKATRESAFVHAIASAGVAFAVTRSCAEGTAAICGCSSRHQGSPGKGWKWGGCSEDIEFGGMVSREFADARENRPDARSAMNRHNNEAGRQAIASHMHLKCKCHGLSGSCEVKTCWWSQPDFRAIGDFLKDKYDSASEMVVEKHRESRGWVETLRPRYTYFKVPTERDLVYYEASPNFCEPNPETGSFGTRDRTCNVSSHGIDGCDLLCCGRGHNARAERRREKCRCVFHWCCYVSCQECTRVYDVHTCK

Molecular target: bovine serum albumin (bovine) (UniProt P02769)
Experiment: SPR; PN1 or PN2 amine-coupled to CM5 sensor chip at pH 5.0; single-cycle kinetics; wnt3a or BSA at 0.062, 0.185, 0.556, 1.667 and 5 µM (legend; methods say 100 nM); contact 1 min, dissociation 2 min; Biacore T200; 4 °C; 30 µL/min; both purified

binding: no binding (tested: 0.062-5 µM (legend))
Substance: human wnt3a (from UniProt P56704 19-352) (ligand)
